# Microarray screen: hit calls

Targets (5′ to 3′):
TPP: TPP riboswitch RNA three-way junction, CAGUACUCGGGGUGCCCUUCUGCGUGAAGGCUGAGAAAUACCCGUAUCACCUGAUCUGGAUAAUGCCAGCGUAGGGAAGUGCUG. About 160 hits among about 24,000 compounds.
PreQ1: PreQ1 riboswitch RNA pseudoknot, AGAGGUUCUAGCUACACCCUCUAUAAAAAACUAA. From B. subtilis. About 170 hits among about 24,000 compounds.
SAM-II: SAM-II riboswitch RNA pseudoknot, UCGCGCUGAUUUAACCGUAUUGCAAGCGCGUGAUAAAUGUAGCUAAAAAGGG. About 200 hits among about 21,000 compounds.

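The test is a small-molecule microarray: each compound is printed twice on a reactive slide, and binding shows as fluorescence of the labelled oligonucleotide after washing. For the PreQ1, TPP and SAM-II riboswitches the laboratory earlier reported (doi:10.1038/s41467-019-09493-3) 1 µM RNA, 2 h, and a rule that included a mean Z-score above 3 (spot signal-to-noise against the whole library), a score well above that on a control array, and duplicate spots agreeing (coefficient of variation under 100). The data file gives only the calls; its cut-offs may differ, and compounds hitting several targets are kept. The calls come from the array alone, and fixing a compound to the slide can hide its binding.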 “hit” means called a hit, “no hit” means screened and not called a hit. The compounds are a random part of those screened. A dash means that no call is listed here.

Compound | TPP | PreQ1 | SAM-II
Cc1nc2onc(N)c2c(C)c1Cl | no hit | no hit | no hit
Cc1cc(NCCCC(=O)N2CCC(C)CC2)n2nc(-c3cccnc3)nc2n1 | no hit | no hit | -
Cc1ccc(Cl)cc1NC(=O)c1nnn(Cc2ccccc2)c1N | no hit | no hit | no hit
Nc1cc(N2CCCC3(CCCN(Cc4ccccc4)C3)C2)nc(N)n1 (configuration not stated) | no hit | no hit | no hit
COc1ccc(S(=O)(=O)Nc2cccnc2Nc2ccc(O)cc2)cc1 | no hit | no hit | no hit
O=C(c1cc(C2CC2)n[nH]1)N1CCN(Cc2ccccc2CO)CC1 | no hit | no hit | no hit
O=C(Nc1ccc(Cl)cc1C(O)c1ccccc1)c1cnn2c1NC(c1cccs1)CC2C(F)(F)F (configuration not stated) | no hit | no hit | no hit
CC(O)c1ccc(-c2ccc(CNCCCn3ccnc3)o2)cc1 (configuration not stated) | no hit | no hit | -
Cc1ccccc1[C@H]1C[C@@H](c2ccccc2Cl)Nc2nc(N)nn21 | no hit | no hit | no hit
O=S1(=O)CC(O)C(NC2CCNCC2)C1 (configuration not stated) | no hit | no hit | -
CCCCOCC(=O)N1C[C@@H](N)C[C@H]1C(=O)NC(C)C | no hit | no hit | no hit
COc1ccccc1C(=O)N1c2ccccc2C(Nc2ccccc2)CC1C (configuration not stated) | no hit | no hit | no hit
O=C1c2[nH]nc(-c3ccccc3O)c2C(c2cccc(Cl)c2)N1CCO (configuration not stated) | no hit | no hit | -
O=C(NCO)c1ccccc1Br | no hit | no hit | no hit
CCCCCNc1cc(C)nc2c(C)c(-c3ccccc3)nn12 | no hit | no hit | -
Cc1ccc2[nH]c(C)c(C(O)CN3CCC(Cc4ccccc4)CC3)c2c1 (configuration not stated) | no hit | no hit | -
CCCCNC(=O)c1nn(-c2ccc(CC)cc2)nc1CO | no hit | no hit | -
COc1cc2c(cc1OC)CC(=O)N(CCCN(C)C[C@H]1Cc3cc(OC)c(OC)cc31)CC2.Cl | no hit | no hit | no hit
CC(=O)Nc1ccc(S(=O)(=O)N2CCCC(CO)C2)cc1 (configuration not stated) | no hit | no hit | no hit
Cc1cc(Nc2cc(N3CCN(C)CC3)nc(Sc3ccc(NC(=O)C4CC4)cc3)n2)n[nH]1 | no hit | no hit | no hit
Cc1ccc(CN(CCN(C)C)C(=O)Cc2c(C)nc(N)nc2C)s1 | no hit | no hit | no hit
Cc1cc(Nc2cccc(C(=O)N3CCC(C)CC3)c2)n2nc(-c3cccnc3)nc2n1 | no hit | no hit | -
COc1ccc(-c2cc3nc(C)cc(NCc4cccnc4)n3n2)cc1OC | no hit | no hit | -
CCOC(=O)C1=C(C)OC(N)=C(C#N)C12C(=O)N1c3c(cc(C)cc32)C(C)=CC1(C)C (configuration not stated) | no hit | no hit | no hit
COc1cc(CC2CC(CNCC3CCOCC3)=NO2)c(OC)c2c1OCO2 (configuration not stated) | no hit | no hit | no hit
Cc1ccccc1CN1c2ccccc2C2=C(C(c3cccc(Cl)c3)C(C#N)=C(N)O2)S1(=O)=O (configuration not stated) | no hit | no hit | -
Cl.N=c1n(CCN2CCOCC2)c2ccccc2n1CC(O)COc1ccccc1 (configuration not stated) | no hit | no hit | no hit
O=c1ncnc2[nH][nH]cc1-2 | no hit | no hit | no hit
CC(C)(CO)NC(=O)c1ccc(Cl)c(S(=O)(=O)N2CCCCC2)c1 | no hit | no hit | no hit
CCOC(=O)c1cnc2ccc(C)cc2c1Nc1ccc(C)cc1 | no hit | no hit | no hit
CCN(CC)C(=O)c1sc2nc(-c3ccncc3)ccc2c1N | no hit | no hit | no hit
COc1cc(C2c3c(-c4ccccc4O)n[nH]c3C(=O)N2CCO)ccc1O (configuration not stated) | no hit | no hit | -
CCOP(=O)(OCC)C(C)NC(=O)N(CCCl)N=O (configuration not stated) | no hit | no hit | no hit
Cn1c(N2CCNCC(O)C2)nc2c1c(=O)[nH]c(=O)n2C (configuration not stated) | no hit | no hit | no hit
CO[C@H]1/C=C\O[C@@]2(C)Oc3c(C)c(O)c4c(O)c(c5c(nc6cc(C)ccn65)c4c3C2=O)NC(=O)/C(C)=C\C=C/[C@H](C)[C@H](O)[C@@H](C)[C@@H](O)[C@@H](C)[C@H](OC(C)=O)[C@H]1C | no hit | no hit | no hit
Cn1c(C2=C(N)N(c3ccccc3)CC2=O)nc2ccccc21 | no hit | no hit | -
COc1ccc(CNc2cc(C)cc(C)c2)c2ccccc12 | no hit | no hit | no hit
Cc1ccc(-c2ccnc(NC(CO)c3cccnc3)n2)c(C)n1 (configuration not stated) | no hit | no hit | no hit
COc1ccc(CCNc2nc3c(C)cccc3cc2-c2noc(C)n2)cc1OC | no hit | no hit | -
NC(=O)Cc1nc([C@H]2Cc3ccccc3CN2)n(-c2cccc(F)c2)n1 | no hit | no hit | no hit
CCCn1c(=O)c2[nH]c(C34CC5CC3C[C@@H](C5)C4)nc2n(CCC)c1=O | no hit | no hit | no hit
COCCn1c(CCCO)nc2ccccc21 | no hit | no hit | -
Cc1ccc(OCCCCn2c(C(C)O)nc3ccccc32)cc1 (configuration not stated) | no hit | no hit | -
CC(=O)c1c(Nc2ccc3c(c2)OCO3)oc(C)cc1=O | no hit | no hit | no hit
CCc1ccc(OCCCCn2c(CO)nc3ccccc32)cc1 | no hit | no hit | no hit

Data from the ROBIN nucleic acid binder screens, doi:10.1002/anie.202211358.